US9012489B2, “Phenyl-3-aza-bicyclo[3.1.0]hex-3-yl-methanones and the use thereof as medicament” (Boehringer Ingelheim International GmbH, priority 2011, dated 2015)
The structures given here were assigned with low confidence; some may be wrong.

By UniProt entry, the sequences of proteins in these tests, tags left out.
UniProt P48067, whole entry: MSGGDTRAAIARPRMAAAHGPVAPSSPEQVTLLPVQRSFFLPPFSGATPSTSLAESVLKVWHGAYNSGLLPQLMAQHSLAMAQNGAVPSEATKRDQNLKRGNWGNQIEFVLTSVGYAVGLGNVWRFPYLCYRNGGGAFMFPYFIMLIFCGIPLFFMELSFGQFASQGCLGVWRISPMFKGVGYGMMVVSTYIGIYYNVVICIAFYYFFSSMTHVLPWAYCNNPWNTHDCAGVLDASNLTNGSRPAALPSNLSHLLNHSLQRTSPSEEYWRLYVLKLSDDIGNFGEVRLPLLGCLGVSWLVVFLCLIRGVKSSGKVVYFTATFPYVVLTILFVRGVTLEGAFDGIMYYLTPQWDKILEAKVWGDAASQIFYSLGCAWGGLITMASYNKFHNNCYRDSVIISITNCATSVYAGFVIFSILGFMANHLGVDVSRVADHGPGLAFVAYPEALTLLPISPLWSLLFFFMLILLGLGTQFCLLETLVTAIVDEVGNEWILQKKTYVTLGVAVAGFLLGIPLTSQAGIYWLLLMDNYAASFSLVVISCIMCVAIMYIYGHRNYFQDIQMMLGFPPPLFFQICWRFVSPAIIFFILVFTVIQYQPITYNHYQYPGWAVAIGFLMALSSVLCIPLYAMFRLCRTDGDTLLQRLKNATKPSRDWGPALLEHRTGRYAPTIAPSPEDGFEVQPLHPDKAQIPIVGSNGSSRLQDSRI

Molecular target: GlyT1 transporter (Homo sapiens, UniProt P48067)
Assay: GlyT1 assay: 3H-glycine uptake into SK-N-MC cells (Cytostar-T format)
Conditions: glycine uptake in human SK-N-MC cells endogenously expressing GlyT1; 500 nM glycine, 1% DMSO, signal recorded over 60 min
Excerpt: Cells expressing either endogenously the GlyT1 transporter like JAR cells (human placental choriocarcinoma cells; e.g. WO 2008/002583) or SK-N-MC cells (human neuroblastoma cells; Depoortere et al., 2005. Neuropsychopharmacology 30:1963-1985) or primary neurons or cells which have been transfected with a plasmid encoding the cDNA of a functional GlyT1 transporter and stably or transiently express GlyT1 (e.g. WO 2006/08200) can be used to monitor glycine uptake in cells. Different protocols for determination of the glycine uptake into the cells described above can be applied in order to identify and rank compounds which interfere with glycine uptake in the selected cell.
Compounds outlined in the examples below were characterized using human SK-N-MC cells (ATCC number HTB-10) endogenously expressing the GlyT1 transporter which is responsible for the uptake of glycine into these cells and the uptake of glycine into these cells is monitored using the Cytostar-T assay format (GE Healthcare, RPNQ0162) which is based on the radioactive glycine taken up by the cells and brought into proximity with the scintillant contained within the base of the plate. […] The uptake is recorded as kinetic and the slope of the measured counts over time is used to calculate IC50. […]
Maximal glycine uptake in every experiment is determined by incubation of SK-N-MC cells with substrate but without inhibitor. […]

IC50: 0.7 µM
Structure (SMILES): COC1(c2nc(C34CC3CN(C(=O)c3cc(S(C)(=O)=O)ccc3O[C@@H](C)C(F)(F)F)C4)no2)CC1 (single isomer, unassigned)
